The other results are listed elsewhere or left out. Many values rest on one well or one pass, so single values are uncertain.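 The apoptosis fraction was the count of cleaved-PARP antibody-stained nuclei relative to all DNA-stained nuclei, imaged in 1,536-well plates. Screening doses were set so most cells survived, and baseline and induced cleaved-PARP levels vary greatly across cell lines.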
How the values were obtained:
Assay in all cases: cleaved PARP positive nuclei fraction relative to DMSO control; melanoma cells; higher = more apoptosis
Settings in all cases: library dose: low library concentration; 72 h
MZ2-MEL = test system: MZ2-MEL
MeWo = test system: MeWo
RPMI7951 = test system: RPMI7951
RVH-421 = test system: RVH-421
SkMel28 = test system: SkMel28
SkMel2 = test system: SkMel2
SkMel30 = test system: SkMel30
SkMel5 = test system: SkMel5
UACC257 = test system: UACC257
UACC62 = test system: UACC62

SMILES | cleaved PARP positive nuclei fraction (MZ2-MEL) [%] | cleaved PARP positive nuclei fraction (MeWo) [%] | cleaved PARP positive nuclei fraction (RPMI7951) [%] | cleaved PARP positive nuclei fraction (RVH-421) [%] | cleaved PARP positive nuclei fraction (SkMel28) [%] | cleaved PARP positive nuclei fraction (SkMel2) [%] | cleaved PARP positive nuclei fraction (SkMel30) [%] | cleaved PARP positive nuclei fraction (SkMel5) [%] | cleaved PARP positive nuclei fraction (UACC257) [%] | cleaved PARP positive nuclei fraction (UACC62) [%]
Cn1cc(C2=C(c3cn(C4CCN(Cc5ccccn5)CC4)c4ccccc34)C(=O)NC2=O)c2ccccc21 [Enzastaurin] + O=c1cc(-c2cccc3c2Sc2ccccc2S3)oc(N2CCOCC2)c1 [KU55933] (first compound 0.8 µM, partner dose 1 µM) | 126 | 136 | 109 | 110 | 43.2 | 98.9 | 99.3 | 70.4 | 101 | 114
CN(c1ncccc1CNc1nc(Nc2ccc3c(c2)CC(=O)N3)ncc1C(F)(F)F)S(C)(=O)=O + C/C(O)=C(\C#N)C(=O)Nc1cc(Br)ccc1Br [LFM-A13] (first compound 0.08 µM, partner dose 2 µM) | 140 | 95.7 | 234 | 235 | 109 | 124 | 33.9 | 104 | 85 | 102
CN1CCN(c2ccc3nc(-c4c(N)c5c(F)cccc5[nH]c4=O)[nH]c3c2)CC1 [Dovitinib] + C/C(O)=C(\C#N)C(=O)Nc1cc(Br)ccc1Br [LFM-A13] (first compound 0.1 µM, partner dose 2 µM) | 145 | 49.1 | 44.3 | 100 | 455 | 19 | 159 | 71.6 | 69 | 146
O=C(Nc1cc(C(F)(F)F)cc(C(F)(F)F)c1)c1cc(Cl)ccc1O + Cc1cc(SCc2sc(-c3ccc(C(F)(F)F)c(F)c3)nc2C)ccc1OCC(=O)O [GW0742] (first compound 0.016 µM, partner dose 2 µM) | 3650 | 97.1 | 178 | 129 | 70.9 | 56 | 30.8 | 33 | 145 | 840
C[As](C)SC[C@H](NC(=O)CC[C@H](N)C(=O)O)C(=O)NCC(=O)O [Darinaparsin] + C[C@@H]1CCN(C(=O)CC#N)C[C@@H]1N(C)c1ncnc2[nH]ccc12 [CP690550] (first compound 0.4 µM, partner dose 1 µM) | 49.4 | 69.1 | 79.1 | 113 | 181 | 52.6 | 138 | 146 | 199 | 78.6
Cn1sc(=O)n(Cc2ccccc2)c1=O + O=C(Oc1ccc([N+](=O)[O-])cc1)N1CCC(C(O)(c2ccc3c(c2)OCO3)c2ccc3c(c2)OCO3)CC1 [JZL184] (first compound 0.4 µM, partner dose 1 µM) | 73.4 | 56.2 | 70.2 | 139 | 90.8 | 57.2 | 133 | 224 | 299 | 154
N.N.[Cl][Pt][Cl] [cisplatin] + CN(C)S(=O)(=O)c1ccc2c(c1)/C(=C/c1cc3c([nH]1)CCCC3)C(=O)N2 [SU6656] (first compound 1.6 µM, partner dose 0.4 µM) | 50.3 | 182 | 105 | 110 | 87.3 | 92.6 | 32.9 | 47.7 | 137 | 36.3
Clc1ccc(Nc2nnc(Cc3ccncc3)c3ccccc23)cc1 [vatalanib] + O=C(Oc1ccc([N+](=O)[O-])cc1)N1CCC(C(O)(c2ccc3c(c2)OCO3)c2ccc3c(c2)OCO3)CC1 [JZL184] (first compound 2 µM, partner dose 1 µM) | 50.2 | 125 | 83.9 | 46.7 | 107 | 115 | 26.6 | 39.6 | 230 | 255
Cn1cc(C2=C(c3cn(C4CCN(Cc5ccccn5)CC4)c4ccccc34)C(=O)NC2=O)c2ccccc21 [Enzastaurin] + CN(C)S(=O)(=O)c1ccc2c(c1)/C(=C/c1cc3c([nH]1)CCCC3)C(=O)N2 [SU6656] (first compound 0.8 µM, partner dose 0.4 µM) | 126 | 15.2 | 104 | 85.1 | 119 | 116 | 395 | 139 | 103 | 135
CC[C@]1(O)C[C@H]2CN(CCc3c([nH]c4ccccc34)[C@@](C(=O)OC)(c3cc4c(cc3OC)N(C=O)[C@H]3[C@@](O)(C(=O)OC)[C@H](OC(C)=O)[C@]5(CC)C=CCN6CC[C@]43[C@@H]65)C2)C1 [vincristine] + O=C(Oc1ccc([N+](=O)[O-])cc1)N1CCC(C(O)(c2ccc3c(c2)OCO3)c2ccc3c(c2)OCO3)CC1 [JZL184] (first compound 0.0001 µM, partner dose 1 µM) | 173 | 187 | 90.6 | 192 | 183 | 114 | 258 | 180 | 626 | 584
COc1ccc(C2=N[C@@H](c3ccc(Cl)cc3)[C@@H](c3ccc(Cl)cc3)N2C(=O)N2CCNC(=O)C2)c(OC(C)C)c1 [Nutlin-3] + Cc1cc(SCc2sc(-c3ccc(C(F)(F)F)c(F)c3)nc2C)ccc1OCC(=O)O [GW0742] (first compound 0.1 µM, partner dose 2 µM) | 123 | 224 | 69.6 | 90.7 | 101 | 114 | 31.2 | 80.5 | 63.5 | 80.5
C[C@]1(O)C[C@@H](c2nc(-c3ccc4ccc(-c5ccccc5)nc4c3)c3c(N)nccn32)C1 + Cc1cc(SCc2sc(-c3ccc(C(F)(F)F)c(F)c3)nc2C)ccc1OCC(=O)O [GW0742] (first compound 0.4 µM, partner dose 2 µM) | 95.1 | 146 | 80.2 | 89.9 | 201 | 159 | 103 | 88.5 | 142 | 166
CCN(CC)CCNC(=O)c1c(C)[nH]c(/C=C2\C(=O)Nc3ccc(F)cc32)c1C [sunitinib] + C/C(O)=C(\C#N)C(=O)Nc1cc(Br)ccc1Br [LFM-A13] (first compound 0.4 µM, partner dose 2 µM) | 97.8 | 61 | 45.1 | 149 | 274 | 89.4 | 56.5 | 67 | 94 | 1090
CC(=O)O[C@@]12CO[C@@H]1C[C@H](O)[C@@]1(C)C(=O)[C@H](O)C3=C(C)[C@@H](OC(=O)[C@H](O)[C@@H](NC(=O)OC(C)(C)C)c4ccccc4)C[C@@](O)([C@@H](OC(=O)c4ccccc4)[C@H]21)C3(C)C [Docetaxel] + Cc1cc(SCc2sc(-c3ccc(C(F)(F)F)c(F)c3)nc2C)ccc1OCC(=O)O [GW0742] (first compound 0.0001 µM, partner dose 2 µM) | 799 | 195 | 346 | 207 | 361 | 945 | 239 | 312 | 163 | 645
Cn1cc(C2=C(c3cn(C4CCN(Cc5ccccn5)CC4)c4ccccc34)C(=O)NC2=O)c2ccccc21 [Enzastaurin] + Cn1cncc1[C@@](N)(c1ccc(Cl)cc1)c1ccc2c(c1)c(-c1cccc(Cl)c1)cc(=O)n2C [tipifarnib] (first compound 0.8 µM, partner dose 0.01 µM) | 99 | 153 | 49.7 | 66.4 | 67.7 | 232 | 56.4 | 137 | 47.5 | 224
Cn1cc(C2=C(c3cn(C4CCN(Cc5ccccn5)CC4)c4ccccc34)C(=O)NC2=O)c2ccccc21 [Enzastaurin] + COC(=O)c1sccc1S(=O)(=O)Nc1ccc(Nc2ccccc2)cc1OC [GSK0660] (first compound 0.8 µM, partner dose 1 µM) | 104 | 171 | 222 | 66.2 | 244 | 117 | 75.4 | 77.6 | 76.3 | 58.1
C[As](C)SC[C@H](NC(=O)CC[C@H](N)C(=O)O)C(=O)NCC(=O)O [Darinaparsin] + COc1cc2c(Oc3ccc4[nH]c(C)cc4c3F)ncnc2cc1OCCCN1CCCC1 [cediranib] (first compound 0.4 µM, partner dose 0.4 µM) | 80 | 20.8 | 147 | 118 | 61.2 | 127 | 60 | 189 | 136 | 52.2
CNC(=O)c1cc(Oc2ccc(NC(=O)Nc3ccc(Cl)c(C(F)(F)F)c3)cc2)ccn1 [sorafenib] + O=C(Oc1ccc([N+](=O)[O-])cc1)N1CCC(C(O)(c2ccc3c(c2)OCO3)c2ccc3c(c2)OCO3)CC1 [JZL184] (first compound 0.4 µM, partner dose 1 µM) | 81.5 | 54.3 | 37.5 | 197 | 130 | 54.8 | 115 | 90.9 | 113 | 99.3
C=CCNC1=C2C[C@@H](C)C[C@H](OC)[C@H](O)[C@@H](C)/C=C(\C)[C@H](OC(N)=O)[C@@H](OC)/C=C\C=C(/C)C(=O)NC(=CC1=O)C2=O [Tanespimycin] + Cc1cc(SCc2sc(-c3ccc(C(F)(F)F)c(F)c3)nc2C)ccc1OCC(=O)O [GW0742] (first compound 0.002 µM, partner dose 2 µM) | 164 | 21.6 | 324 | 116 | 50.3 | 99.5 | 28.3 | 38.9 | 15.2 | 34.8
N.N.[Cl][Pt][Cl] [cisplatin] + Cn1cncc1[C@@](N)(c1ccc(Cl)cc1)c1ccc2c(c1)c(-c1cccc(Cl)c1)cc(=O)n2C [tipifarnib] (first compound 1.6 µM, partner dose 0.01 µM) | 87.7 | 52.2 | 98.2 | 129 | 54.9 | 99 | 127 | 142 | 67.2 | 78.4
C[As](C)SC[C@H](NC(=O)CC[C@H](N)C(=O)O)C(=O)NCC(=O)O [Darinaparsin] + OCCn1cc(-c2cnc3nnn(Cc4ccc5ncccc5c4)c3n2)cn1 [PF04217903] (first compound 0.4 µM, partner dose 1 µM) | 131 | 55.2 | 141 | 57.5 | 70.8 | 98.5 | 50.8 | 34.4 | 92.2 | 113
C[As](C)SC[C@H](NC(=O)CC[C@H](N)C(=O)O)C(=O)NCC(=O)O [Darinaparsin] + CN(NC(=O)CC(=O)NN(C)C(=S)c1ccccc1)C(=S)c1ccccc1 [STA4783] (first compound 0.4 µM, partner dose 0.006 µM) | 70.8 | 331 | 114 | 76.9 | 151 | 61.4 | 71.4 | 70.4 | 122 | 87.4

Looked up above.
cleaved PARP positive nuclei fraction (UACC62) [%], Clc1ccc(Nc2nnc(Cc3ccncc3)c3ccccc23)cc1 [vatalanib] + O=C(Oc1ccc([N+](=O)[O-])cc1)N1CCC(C(O)(c2ccc3c(c2)OCO3)c2ccc3c(c2)OCO3)CC1 [JZL184] (first compound 2 µM, partner dose 1 µM) is entered as 255
cleaved PARP positive nuclei fraction (SkMel5) [%], Cn1cc(C2=C(c3cn(C4CCN(Cc5ccccn5)CC4)c4ccccc34)C(=O)NC2=O)c2ccccc21 [Enzastaurin] + CN(C)S(=O)(=O)c1ccc2c(c1)/C(=C/c1cc3c([nH]1)CCCC3)C(=O)N2 [SU6656] (first compound 0.8 µM, partner dose 0.4 µM) is entered as 139

— the supplement of paper PMC4604168 (melanoma cell lines)
